These are yes or no findings as the source states them, for the method shown. In cells and extracts the contact can be indirect. For some assays here: A result given as binding can be weak or reduced; the word gives no strength. Where a sequence is shown, tags or fusion partners need not be part of it.
T1: RLP23-GFP (Arabidopsis RLP23, GFP-tagged) (Arabidopsis thaliana) (UniProt O48849)
T1 sequence: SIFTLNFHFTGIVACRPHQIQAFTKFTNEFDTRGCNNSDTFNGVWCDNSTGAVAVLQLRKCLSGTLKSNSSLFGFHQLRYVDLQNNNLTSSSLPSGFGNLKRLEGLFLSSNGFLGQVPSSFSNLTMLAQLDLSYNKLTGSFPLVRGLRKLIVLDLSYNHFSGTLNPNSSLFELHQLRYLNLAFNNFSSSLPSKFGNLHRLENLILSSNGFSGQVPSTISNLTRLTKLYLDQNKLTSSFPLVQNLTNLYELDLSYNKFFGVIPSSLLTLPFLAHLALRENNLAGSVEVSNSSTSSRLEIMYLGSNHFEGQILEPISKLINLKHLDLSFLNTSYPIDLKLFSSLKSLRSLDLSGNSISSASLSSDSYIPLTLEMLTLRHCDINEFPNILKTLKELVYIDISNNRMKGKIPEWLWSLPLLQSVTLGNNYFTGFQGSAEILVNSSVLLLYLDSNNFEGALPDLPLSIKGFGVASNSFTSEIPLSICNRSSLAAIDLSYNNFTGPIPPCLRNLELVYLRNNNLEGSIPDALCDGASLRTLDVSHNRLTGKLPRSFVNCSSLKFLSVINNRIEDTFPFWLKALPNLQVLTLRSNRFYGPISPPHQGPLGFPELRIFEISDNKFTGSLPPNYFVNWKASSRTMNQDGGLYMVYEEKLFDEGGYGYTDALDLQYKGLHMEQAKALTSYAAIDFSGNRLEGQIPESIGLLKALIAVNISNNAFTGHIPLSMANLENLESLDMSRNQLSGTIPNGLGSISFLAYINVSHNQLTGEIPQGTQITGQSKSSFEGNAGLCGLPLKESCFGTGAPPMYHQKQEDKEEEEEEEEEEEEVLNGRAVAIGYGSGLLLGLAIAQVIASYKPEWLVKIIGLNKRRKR

B1: XEG1-HA (Phytophthora sojae glycoside hydrolase 12 protein XEG1, C-terminal HA tag) (protein, UniProt G4ZHR2 20-241)
chain: GDYCGQWDWAKSTNYIVYNNLWNKNAAASGSQCTGVDKISGSTIAWHTSYTWTGGAATEVKSYSNAALVFSKKQIKNIKSIPTKMKYSYSHSSGTFVADVSYDLFTSSTASGSNEYEIMIWLAAYGGAGPISSTGKAIATVTIGSNSFKLYKGPNGSTTVFSFVATKTITNFSADLQKFLSYLTKNQGLPSSQYLITLEAGTEPFVGTNAKMTVSSFSAAVN

Experiments:
[1] = biological target: T1, RLP23-GFP (Arabidopsis RLP23, GFP-tagged) (Arabidopsis thaliana); assay: co-IP; Arabidopsis RLP23 with BAK1 in mock-treated N. benthamiana leaves, without nlp20 (Supplementary Fig. 11a)
[2] = biological target: T1, RLP23-GFP (Arabidopsis RLP23, GFP-tagged) (Arabidopsis thaliana); assay: co-IP; Arabidopsis RLP23 with BAK1 and SOBIR1 in N. benthamiana leaves; treatment with the ligand nlp20 (PpNLP) or mock (Supplementary Fig. 11a)
[3] = biological target: RXEGL1^SP+LRR-GFP (signal peptide + LRR domain of RXEGL1, GFP-tagged) (Nicotiana benthamiana); assay: co-IP; apoplastic fluid collected 2 dai from N. benthamiana leaves co-expressing XEG1 with GFP-tagged SP+LRR proteins; immunoprecipitation and western blotting
[4] = biological target: RXEG1^SP+LRR-GFP (signal peptide + LRR domain of RXEG1, GFP-tagged) (Nicotiana benthamiana); assay: as above
[5] = biological target: RLP23^SP+LRR-GFP (signal peptide + LRR domain of Arabidopsis RLP23, GFP-tagged) (Arabidopsis thaliana); assay: as above
[6] = biological target: RXEGL1^SP+LRR-GFP (signal peptide + LRR domain of RXEGL1, GFP-tagged) (Nicotiana benthamiana); assay: co-IP; proteins co-expressed in N. benthamiana leaves, isolated at 2 dai; total protein extract (150-200 mM NaCl, 50 mM Tris-HCl pH 7.5, 10 mM EDTA, 1.0% NP-40); GFP-trap A beads, 4 °C, 2 h; blots with anti-GFP and anti-HA
[7] = biological target: RXEG1^SP+LRR-GFP (signal peptide + LRR domain of RXEG1, GFP-tagged) (Nicotiana benthamiana); assay: as above
[8] = biological target: RLP23^SP+LRR-GFP (signal peptide + LRR domain of Arabidopsis RLP23, GFP-tagged) (Arabidopsis thaliana); assay: as above

Row | Molecule | binding [1] | binding [2] | binding [3] | binding [4] | binding [5] | binding [6] | binding [7] | binding [8]
1 | BAK1-RFP (Nicotiana benthamiana) (receptor) | binds weakly | binds | – | – | – | – | – | –
2 | B1 | – | – | no binding | binds | no binding | no binding | binds | no binding

From paper PMC5807360
